Measured values reported in ChEMBL document CHEMBL5036302, “Amphiol, an Antifungal Fungal Pigment from Pseudogymnoascus sp. PF1464” (2021).
In brackets after ≈: the same amount, converted by molar mass.

Key:
Aspergillus fumigatus = assay: Antifungal activity against Aspergillus fumigatus assessed as inhibition of fungal growth by CLSI protocol based microbroth dilution method; format: functional
Candida albicans = assay: Antifungal activity against Candida albicans assessed as inhibition of fungal growth by CLSI protocol based microbroth dilution method; format: functional

C[C@@H]1[C@H](O)[C@@H](C)/C=C/C=C/C=C/C=C/C=C/C=C/C=C/[C@H](O[C@@H]2O[C@H](C)[C@@H](O)[C@H](N)[C@@H]2O)C[C@@H]2O[C@](O)(C[C@@H](O)C[C@@H](O)[C@H](O)CC[C@@H](O)C[C@@H](O)CC(=O)O[C@H]1C)C[C@H](O)[C@H]2C(=O)O [AMPHOTERICIN B]
MIC (Aspergillus fumigatus): 2 µg/mL (≈ 2.16 µM) | MIC (Candida albicans): 1 µg/mL (≈ 1.08 µM)
